This note sets out measurements from paper PMC8466066, “Searching for Biological Function of the Mysterious PA2504 Protein from Pseudomonas aeruginosa” (International Journal of Molecular Sciences, 2021).

Results are given in words; binding and its absence hold for the method and conditions named. In cells and extracts the contact can be indirect. A yes stands for co-enrichment or nearness to the bait. Other partners may have been found. For some assays here: No binding means not detected with the bait. Tags and fused reporters may be left off the sequences shown.

Test [1] concerns the target T1, His6-tagged PA2504 expressed in P. aeruginosa ΔPA2504 (plasmid pKGB2504) (Pseudomonas aeruginosa) (UniProt Q9I0X8).
T1 sequence: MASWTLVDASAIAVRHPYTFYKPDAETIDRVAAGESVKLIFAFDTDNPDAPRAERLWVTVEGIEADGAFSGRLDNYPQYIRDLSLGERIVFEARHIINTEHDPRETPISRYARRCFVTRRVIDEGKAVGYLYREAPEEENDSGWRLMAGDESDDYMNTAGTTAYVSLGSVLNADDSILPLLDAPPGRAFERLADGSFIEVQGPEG
Nature of the test: cross-linking + affinity purification with mass spectrometry; exponential phase culture; in vivo cross-linking with 0.4% formaldehyde for 10 min, His6-PA2504 isolated on Ni-NTA, cross-links reversed at 100 °C, SDS-PAGE; compared with the stationary phase.

In test [2] the target is T1, His6-tagged PA2504 expressed in P. aeruginosa ΔPA2504 (plasmid pKGB2504) (Pseudomonas aeruginosa). In words: cross-linking + affinity purification with mass spectrometry; stationary phase culture; in vivo cross-linking with 0.4% formaldehyde for 10 min, His6-PA2504 isolated on Ni-NTA, cross-links reversed at 100 °C, SDS-PAGE, bands cut out and identified by mass spectrometry.

B1: GacA global response regulator (PA2586) (protein, UniProt Q51373 1-214)
chain: MIKVLVVDDHDLVRTGITRMLADIEGLQVVGQADCGEDCLKLARELKPDVVLMDVKMPGIGGLEATRKLLRSQPDIKVVVVTVCEEDPFPTRLMQAGAAGYMTKGAGLEEMVQAIRQVFAGQRYISPQIAQQLALKSFQPQQHDSPFDSLSEREIQIALMIANCHKVQSISDKLCLSPKTVNTYRYRIFEKLSITSDVELALLAVRHGMVDAAS
With B1, the figures for the binding entry in test [1] and in test [2] were “no binding (only exponential phase of growth)” and “binds”, respectively.
